Laboratory results as given in publication PMC11681874.
No constants are given. Whether binding was seen depends on the method and setting. In cells and extracts the contact can be indirect. Some results given as binding are weak or reduced against the parent protein; the word gives no strength.

Molecular target: T1, RXRα (UniProt P28700)
T1 sequence: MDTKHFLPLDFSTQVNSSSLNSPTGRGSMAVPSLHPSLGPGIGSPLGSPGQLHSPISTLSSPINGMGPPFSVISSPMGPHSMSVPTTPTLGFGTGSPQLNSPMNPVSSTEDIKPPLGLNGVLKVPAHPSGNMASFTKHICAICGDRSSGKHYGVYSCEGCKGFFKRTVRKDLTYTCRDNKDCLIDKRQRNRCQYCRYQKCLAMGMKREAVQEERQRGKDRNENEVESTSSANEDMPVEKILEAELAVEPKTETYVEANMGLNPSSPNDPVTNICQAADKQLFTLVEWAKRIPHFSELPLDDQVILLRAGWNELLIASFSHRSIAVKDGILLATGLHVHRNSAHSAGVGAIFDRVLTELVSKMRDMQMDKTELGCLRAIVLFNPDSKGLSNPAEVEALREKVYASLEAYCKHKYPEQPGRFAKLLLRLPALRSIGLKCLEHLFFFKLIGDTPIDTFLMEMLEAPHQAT
Assay: co-IP; immunoprecipitation with anti-RXRα antibody of exogenously expressed proteins as indicated, in differentiated 3T3-L1 cells; no methods section for the co-IP

- binding: binds
B1: ZBTB9 (protein, UniProt Q8CDC7 1-459)
chain: MDASTPLPPASSSPRCNPAPQTIHIEFPHHSSSLLESLNRHRLEGKFCDVSLLVQGRELRAHKAVLAAASPYFHDKLLLGDAPRLTLPNVIEADAFEGLLQLIYSGSLHLPLDALPAHLLVASGLQMWQVVDRCSEILRELETSGGISAGGRASSLTLISTTSSGGWCIRSSPFQNPVRSSASTENSVLPESPAGGEGSELEGMLQIQVKVEEEEEQGSAAPLFQTPQPERVSGGVSQACGSHPLPTPALPSKPSEDESSTVDPPAPPVQASQILYVNQENVECKEEIARGTKEKTKVLSGEDSEEKEELRYLLSSGGGESSGAGDPSWKPVDLHGNEILSGDGGPGGTGQAMHGPVKLGGTPPADGKCFACLCGKRFAVKPKRDRHIMLTFSLRPFGCGICNKRFKLKHHLTEHMKTHARALHACPHCGRRFRVQAFFLRHRDLCKGQGWPTYHWTYK
